From paper PMC12040169 (PLOS Biology, 2025)
The list shows a part of the results.

What follows are compounds tested on T1, CTL2-GFP (C. trachomatis L2/434/Bu, GFP-expressing). Details: bulk GFP, single well; 28.5 h, 10 µM; inhibitor.
T1 construct: L2/434/Bu, GFP-expressing
Parameters: species or system HeLa; Intracellular C. trachomatis growth in HeLa cells, bulk GFP fluorescence relative to DMSO
For `Cc1ccc(Nc2nc(N/N=C/c3ccccc3)nc(N3CCC(Cc4ccccc4)CC3)n2)cc1` [CBK262296], the “% of control remaining” value was 110.54%. With `O=C(CCn1c(C(F)F)cc2cccnc21)NCc1cccnc1` [CBK285066] the “% of control remaining” value was 103.296%. With `O=C(CCn1c(C(F)F)cc2cccnc21)N1CCOCC1` [CBK284956] the “% of control remaining” value was 112.57%. In the case of `CC(=O)Nc1cccc(C(=O)N2CCN(Cc3ccc4c(c3)OCO4)CC2)c1` [CBK270031], the “% of control remaining” value is reported as 106.348%. In the case of `CCCCSc1nc(N)cc(N2CCC(N3CCOC3=O)CC2)n1` [CBK306974], the “% of control remaining” value is reported as 97.9818%. In the case of `N#CC1=C(N)Oc2cc(N)ccc2C1c1ccc(-c2ccccc2)cc1` (centres unmarked) [CBK261605], the “% of control remaining” value is reported as 115.133%. `CN(C)C(=O)c1ccc(-c2ccc3c(c2)COC(C2CCN(C(=O)CC4CCCCC4)CC2)O3)cc1` (centres unmarked) [CBK149763] was tested, and the “% of control remaining” value was 87.4777%. `Cc1cc(NC(=O)CCCN2C(=O)c3cccc4cccc(c34)C2=O)n(-c2ccccc2)n1` [CBK265874] was tested, and the “% of control remaining” value was 101.506%. For `COc1cc(CN2CCN(C/C=C/c3ccccc3)CC2)cc(Br)c1O` [CBK261582], the “% of control remaining” value was 100%. `CC(NS(=O)(=O)c1ccccc1Cl)C(=O)N1CCCC1` (centres unmarked) [CBK305994] was tested, and the “% of control remaining” value was 80.4111%. `Oc1ccccc1/C=N/c1ccc(Cc2ccc(/N=C/c3ccccc3O)c(O)c2)cc1O` [CBK261156] was tested, and the “% of control remaining” value was 102.22%. In the case of `O=C(NC(Cc1ccccc1)C(=O)O)c1ccc(C#CC2(O)CCCCC2)cc1` (centres unmarked) [CBK267702], the “% of control remaining” value is reported as 140.691%. With `OC(CNCCNc1nccc(C(F)(F)F)n1)Cn1ccc2ccccc21` (centres unmarked) [CBK074642] the “% of control remaining” value was 110.059%. For `COc1ccc(-c2nn(CC(=O)O)cc2/C=C/c2cc(C(F)(F)F)nc(=O)[nH]2)cc1` [CBK287128], the “% of control remaining” value was 138.57%. In the case of `CN(C)CCOC(=O)c1ccc(S(=O)(=O)N(C)C)o1` [CBK264273C], the “% of control remaining” value is reported as 105.044%. With `COc1ccc(O[C@@H]2CCCC[C@@H]2N2CCCCC2)cc1` [CBK015661C] the “% of control remaining” value was 100%. With `C(=C\c1nccnc1OCCc1cccs1)/c1ccccc1` [CBK106873] the “% of control remaining” value was 122.727%. In the case of `Cc1ccc2[nH]cc(CCN3CCC4(CC3)NCCc3c4[nH]c4ccc(OCc5ccccc5)cc34)c2c1` [CBK039342], the “% of control remaining” value is reported as 126.109%. In the case of `COCCN1CCn2c(nc3cc(NC(=O)c4ccco4)ccc32)C1` [CBK267990], the “% of control remaining” value is reported as 123.991%. For `Nc1ccc2c(O)c(C(=O)NCc3ccc(Cl)cc3)c(=O)[nH]c2c1` [CBK017557], the “% of control remaining” value was 125.284%. `O=c1c2c([nH]c3nc(COc4ccccc4)nn13)CCC2` [CBK288188] was tested, and the “% of control remaining” value was 115.958%. In the case of `O=C(O)CCSc1nc2ccccc2nc1N1CCCC1` [CBK107862], the “% of control remaining” value is reported as 190.853%. In the case of `COc1ccccc1CN1CCC(Cc2ccccc2-c2ccc(C)cc2C)(C(=O)O)CC1` [CBK286419], the “% of control remaining” value is reported as 122.906%. In the case of `COc1ccnc(N2CCN(C(=O)CCc3ccsc3)CC2)n1` [CBK306350], the “% of control remaining” value is reported as 85.4244%. With `Cc1ccc(Nc2nc(CSc3nnc(-c4ccccc4)o3)cs2)cc1` [CBK268455] the “% of control remaining” value was 132.656%. `Cc1[nH]c2ccccc2c1C(=O)C(=O)Nc1sc(C)c(C)c1C#N` [CBK270038] was tested, and the “% of control remaining” value was 127.057%. In the case of `COc1cccc(C(=O)Nc2ccc(-c3noc(-c4ccccn4)n3)cc2)c1` [CBK270055], the “% of control remaining” value is reported as 105.246%. `O=C(Nc1ccc(-c2ccccc2C(F)(F)F)s1)C(F)(F)F` [CBK099942] was tested, and the “% of control remaining” value was 91.2636%. With `Fc1cccc(F)c1OCCOc1nc(N2CCNCC2)ccc1C(F)(F)F` [CBK003977A] the “% of control remaining” value was 24.1924%. In the case of `NC(=O)c1sc2nc(-c3cccnc3)ccc2c1N` [CBK023645], the “% of control remaining” value is reported as 89.4318%. In the case of `CCCN(C)Cc1ccc(-c2cn(CC(=O)NCc3ccc(OCC(F)F)cc3)nn2)cc1` [CBK166365], the “% of control remaining” value is reported as 143.514%. In the case of `CCc1cc(NC[C@@H](O)CO)nc(-c2cc(F)c(F)c(F)c2)n1` [CBK132879], the “% of control remaining” value is reported as 114.685%. For `CCc1n[nH]c(C(=O)N/N=C/c2cccnc2)c1C` [CBK263386], the “% of control remaining” value was 118.677%. With `CC(=O)Nc1ccc(-c2ccc(C(=O)N3CCN(C(=O)OCc4ccccc4)CC3)cn2)cc1` [CBK160185] the “% of control remaining” value was 94.5773%. With `Cc1ccc(C)c(C2CCCN2C(=O)C2CN(C(=O)C3CCN(C)CC3)C2)c1` (centres unmarked) [CBK286022] the “% of control remaining” value was 99.4732%. In the case of `Cc1ccc(/C=N\NC(=O)c2cccc(Cl)c2)s1` [CBK016469], the “% of control remaining” value is reported as 88.9226%. With `Cc1[nH]c(=O)[nH]c(=O)c1CC(=O)N1CCc2ncc(Cl)cc2C1` [CBK286302] the “% of control remaining” value was 116.026%. `O=C(CNC(=O)c1ccc(OC(F)F)cc1)NCCCn1cccn1` [CBK297789] was tested, and the “% of control remaining” value was 113.704%. With `CN(C)c1ccc(-c2nccnc2NS(=O)(=O)Cc2cccc(Cl)c2)cc1` [CBK050787] the “% of control remaining” value was 130.799%. `CC(=O)Nc1ccc(OCC(O)Cn2cnc3ncccc3c2=O)cc1` (centres unmarked) [CBK304541] was tested, and the “% of control remaining” value was 126.779%. With `CC(Oc1ccccc1)c1nnc(SCC(=O)Nc2cc(Cl)c(Cl)cc2Cl)n1C` (centres unmarked) [CBK266262] the “% of control remaining” value was 159.572%. With `CCN(CC)C(=O)CN1C2CCC1CC(O)(c1ccco1)C2` (centres unmarked) [CBK284094] the “% of control remaining” value was 113.293%. In the case of `CC1Cc2cc(CCC(=O)N3CCCc4c(cnn4C)C3)ccc2O1` (centres unmarked) [CBK282882], the “% of control remaining” value is reported as 113.954%. `O=C(CN(Cc1ccc(Cl)cc1Cl)S(=O)(=O)c1ccccc1)Nc1c(F)cccc1F` [CBK265801] was tested, and the “% of control remaining” value was 115.017%. With `Cc1ccnn1CCC(=O)N1CCn2cc(C(F)(F)F)nc2C1` [CBK283912] the “% of control remaining” value was 93.2672%. In the case of `COC(=O)c1ccc(-c2ccc(OC)c(OC)c2)nc1` [CBK160175T], the “% of control remaining” value is reported as 130.967%. For `COc1ccc2c(c1)C1(CC(=O)N(C)C1=O)C(=O)N2CC(=O)O` (centres unmarked) [CBK076118], the “% of control remaining” value was 100%. In the case of `O=C(Cc1c[nH]c2ccccc12)NC1CCCC1` [CBK200238], the “% of control remaining” value is reported as 139.813%. For `Cc1cc(C)n(CC(C)NC(=O)c2cc(C(F)(F)F)nn2C)n1` (centres unmarked) [CBK281671], the “% of control remaining” value was 100.245%. In the case of `COC(=O)CCc1ccc(S(=O)(=O)N2CCN(Cc3ccc(O)c(F)c3)CC2)cc1` [CBK062813], the “% of control remaining” value is reported as 104.447%. For `CS(=O)(=O)N1CCc2cc(-c3csc(N)n3)ccc21` [CBK304596], the “% of control remaining” value was 132.812%. With `Cc1c(CN2CCCC(c3cc4cccnc4[nH]3)C2)cnn1C` (centres unmarked) [CBK284683] the “% of control remaining” value was 78.2213%. With `CSc1nnc(-c2sccc2OCc2ccc(Cl)cc2Cl)n1C` [CBK067693] the “% of control remaining” value was 82.9905%. `Cc1[nH]c(=O)[nH]c(=S)c1C(=O)NCc1cccc(Cl)c1C` [CBK115493] was tested, and the “% of control remaining” value was 91.1866%. For `CCN(CC)C(=O)c1ccc(NS(=O)(=O)c2ccc(-c3ccccc3)cc2)cc1` [CBK034395], the “% of control remaining” value was 86.1547%. `c1ccc2oc(CN3Cc4nc[nH]c4C[C@H]3c3nc(-c4ccc5c(c4)OCO5)no3)cc2c1` [CBK288998] was tested, and the “% of control remaining” value was 106.648%. With `Cc1oc(CSCc2cc(C(=O)O)c(C)o2)cc1C(=O)O` [CBK264291] the “% of control remaining” value was 131.745%. For `CC(C)c1ccc(N2C(=O)[C@@H]3C[C@@H](NC(=O)c4ccnc(Cl)c4)CCN3C2=O)cc1` [CBK289544], the “% of control remaining” value was 121.128%. For `O=C(Nc1cccc2c(NC(=O)C3CC3c3ccccc3)cccc12)C1CC1c1ccccc1` (centres unmarked) [CBK260911], the “% of control remaining” value was 106.306%. In the case of `Cc1ccc(S(=O)(=O)N2CCN(C(=O)CSc3nnc4sc5ccccc5n34)CC2)cc1` [CBK265961], the “% of control remaining” value is reported as 100%. In the case of `Cc1ccnc(N2CCOC3(CCCC3)C2)n1` [CBK304794], the “% of control remaining” value is reported as 112.501%. With `O=[N+]([O-])c1ccc(Oc2cccc3cccnc23)c(F)c1` [CBK002750] the “% of control remaining” value was 105.931%. In the case of `CC(=O)N1CCN2C(=O)c3cc(-c4ccc5c(c4)OCO5)ccc3NC(=O)[C@H]2C1` [CBK289597], the “% of control remaining” value is reported as 165.922%. In the case of `N#Cc1ccsc1NS(=O)(=O)c1ccc(Cl)c(Cl)c1` [CBK034735], the “% of control remaining” value is reported as 129.28%. With `CC(Cn1cncn1)NC(=O)c1cccc(S(=O)(=O)NC2CCCC2)c1` (centres unmarked) [CBK304209] the “% of control remaining” value was 116.845%. `N#CCCN(C(=O)NCc1ccc(Cl)c(Cl)c1)C1CCCCC1` [CBK156349] was tested, and the “% of control remaining” value was 115.766%. For `CS(=O)(=O)Nc1ccc(C(=O)Nc2ccc(S(=O)(=O)Nc3nccs3)cc2)cc1` [CBK267856], the “% of control remaining” value was 55.7613%. For `COc1ccc(S(=O)(=O)N2CCN(c3ccccc3F)CC2)cc1` [CBK070377], the “% of control remaining” value was 112.951%. With `Cn1ccnc1C(NC(=O)C1CCCC1)c1ccc(F)c(F)c1` (centres unmarked) [CBK283784] the “% of control remaining” value was 108.081%. `Cn1c2c(c3ccccc31)CCOC21CCN(CC2CCCCO2)CC1` (centres unmarked) [CBK040649] was tested, and the “% of control remaining” value was 163.92%. With `COc1cc2c(cc1NC(=O)c1cc(-c3cccnc3)nc3ccc(C)cc13)oc1ccccc12` [CBK267722] the “% of control remaining” value was 109.279%. For `CCC(=O)NNC(=O)c1cc(O)nc2ccccc12` [CBK263495], the “% of control remaining” value was 117.163%. With `CC(C)S(=O)(=O)CC(=O)Nc1ccc(C(=O)O)cc1` [CBK020001] the “% of control remaining” value was 121.276%. For `O=C(Nc1ccc(NC(=O)c2ccco2)cc1)c1ccc(N2CCOCC2)c([N+](=O)[O-])c1` [CBK268739], the “% of control remaining” value was 120.483%. For `O=C(C1CCCC1)N1CCCC1c1nnc(-c2ccsc2)o1` (centres unmarked) [CBK285506], the “% of control remaining” value was 133.553%. For `O=C(NCc1ccncc1)Nc1ccc([N+](=O)[O-])cc1` [CBK264319], the “% of control remaining” value was 136.164%. For `Cc1cc(Br)ccc1OCC(=O)O/N=C(\N)Cc1ccc([N+](=O)[O-])cc1` [CBK265095], the “% of control remaining” value was 115.185%.
